# Measured values as given in PubChem BioAssay AID796 (Columbia University Molecular Screening Center, 2007).
# Some of the results follow. Some of these compounds have results that are not shown, active ones among them.
# Assay: inhibitors of IL-1B driven NFkB p65 nuclear import, primary screen, imaging, HUVEC, IL-1B stimulus, high-content imaging (AID 796)
# Conditions: HUVEC IL-1B NFkB p65 nuclear translocation imaging; cells passing quality filter; at 2 µM; stronger effect = lower value
row,SMILES,cell count
1,CC(C)N1C(=O)CC2(CCN(CCOC(=O)C(O)(c3ccccc3)c3ccccc3)CC2)C1=O,129
2,O=C(OC1CN2CCC1CC2)C(CO)(c1ccccc1)c1ccccc1 (stereo not drawn),131
3,CN(C)c1cccc(C(=O)NCC2(N(C)C)CCCCC2)c1,105
